The results in this text go back to publication PMC8315068.

Sequences of proteins named here, by UniProt entry; tags and fusion partners are left off.
UniProt Q15672: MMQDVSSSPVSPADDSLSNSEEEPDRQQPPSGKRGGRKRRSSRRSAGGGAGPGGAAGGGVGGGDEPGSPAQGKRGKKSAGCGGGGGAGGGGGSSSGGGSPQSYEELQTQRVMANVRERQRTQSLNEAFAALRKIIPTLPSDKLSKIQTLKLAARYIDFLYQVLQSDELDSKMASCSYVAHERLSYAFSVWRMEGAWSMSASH
UniProt P40763: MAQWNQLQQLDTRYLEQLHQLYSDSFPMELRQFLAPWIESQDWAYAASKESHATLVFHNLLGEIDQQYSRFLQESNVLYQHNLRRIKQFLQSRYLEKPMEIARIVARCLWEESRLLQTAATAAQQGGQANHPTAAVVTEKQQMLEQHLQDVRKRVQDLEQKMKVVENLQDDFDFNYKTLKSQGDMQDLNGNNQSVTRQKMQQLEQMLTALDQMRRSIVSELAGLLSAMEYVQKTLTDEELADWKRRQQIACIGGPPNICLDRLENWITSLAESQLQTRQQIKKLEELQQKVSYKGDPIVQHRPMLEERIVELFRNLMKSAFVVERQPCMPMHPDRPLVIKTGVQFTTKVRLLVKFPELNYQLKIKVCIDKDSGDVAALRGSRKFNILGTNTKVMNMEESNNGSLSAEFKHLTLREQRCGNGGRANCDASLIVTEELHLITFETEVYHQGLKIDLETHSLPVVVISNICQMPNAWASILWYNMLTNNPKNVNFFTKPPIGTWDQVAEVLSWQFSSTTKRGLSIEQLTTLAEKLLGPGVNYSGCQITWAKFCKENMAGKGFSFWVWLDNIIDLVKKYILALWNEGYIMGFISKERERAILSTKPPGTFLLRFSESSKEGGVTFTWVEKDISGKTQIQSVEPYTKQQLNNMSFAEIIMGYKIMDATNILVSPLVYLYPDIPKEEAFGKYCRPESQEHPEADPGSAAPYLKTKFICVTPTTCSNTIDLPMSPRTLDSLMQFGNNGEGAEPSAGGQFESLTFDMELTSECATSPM
UniProt P04150: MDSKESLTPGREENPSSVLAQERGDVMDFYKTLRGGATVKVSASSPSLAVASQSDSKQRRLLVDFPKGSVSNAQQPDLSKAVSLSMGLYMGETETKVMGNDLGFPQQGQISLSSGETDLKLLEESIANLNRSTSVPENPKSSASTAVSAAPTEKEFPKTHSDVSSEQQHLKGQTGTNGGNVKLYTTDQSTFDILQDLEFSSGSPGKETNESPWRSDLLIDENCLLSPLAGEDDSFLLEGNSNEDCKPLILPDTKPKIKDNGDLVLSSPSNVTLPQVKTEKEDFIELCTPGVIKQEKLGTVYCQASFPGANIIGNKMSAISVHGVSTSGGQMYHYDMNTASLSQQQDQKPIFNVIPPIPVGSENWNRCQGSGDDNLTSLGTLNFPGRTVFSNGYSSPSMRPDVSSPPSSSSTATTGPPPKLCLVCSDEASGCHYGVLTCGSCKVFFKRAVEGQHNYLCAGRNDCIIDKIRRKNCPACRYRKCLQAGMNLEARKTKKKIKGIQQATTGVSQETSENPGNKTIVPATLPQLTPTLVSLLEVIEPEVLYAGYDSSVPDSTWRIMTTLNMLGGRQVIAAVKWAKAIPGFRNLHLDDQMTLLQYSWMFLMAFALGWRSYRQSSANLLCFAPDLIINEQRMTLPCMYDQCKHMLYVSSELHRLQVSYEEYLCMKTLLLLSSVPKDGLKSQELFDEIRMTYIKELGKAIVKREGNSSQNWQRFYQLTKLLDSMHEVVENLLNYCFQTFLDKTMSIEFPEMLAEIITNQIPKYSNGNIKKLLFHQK

No constants are given. Whether binding was seen depends on the method and setting. Binding seen in cells or lysates may run through a third protein. Here binding means that the protein was enriched with, or labelled near, the bait; the list need not be complete.

For test [1], the target named is Twist1 protein (TW1), endogenous in cells isolated from human colon tissue (human (endogenous in colon tissue cells of patients)) (UniProt Q15672). In words: affinity purification with mass spectrometry; immunoprecipitation with an anti-TW1 Ab as bait from protein extracts of colon neutrophils of CR and CS UC patients; precipitated complexes analysed by MS.
Test [2] concerns the target STAT3 (Signal Transducer and Activator of Transcription-3), endogenous in human colon neutrophils (human (endogenous in colon neutrophils of UC patients)) (UniProt P40763). Description: affinity purification with mass spectrometry; anti-STAT3 Ab as bait, protein extracts of colon neutrophils of UC patients with CR; precipitated proteins analysed by MS.

“glucocorticoid receptor (GR)α, endogenous in cells isolated from human colon tissue (from UniProt P04150 1-777)”: the binding entry in test [1] was “binds”.

B1: Ras Protein Activator Like 1 (RASAL1), endogenous in human colon neutrophils (protein, UniProt O95294 1-804)
chain: MAKSSSLNVRVVEGRALPAKDVSGSSDPYCLVKVDDEVVARTATVWRSLGPFWGEEYTVHLPLDFHQLAFYVLDEDTVGHDDIIGKISLSREAITADPRGIDSWINLSRVDPDAEVQGEICLSVQMLEDGQGRCLRCHVLQARDLAPRDISGTSDPFARVFWGSQSLETSTIKKTRFPHWDEVLELREMPGAPSPLRVELWDWDMVGKNDFLGMVEFSPKTLQQKPPKGWFRLLPFPRAEEDSGGNLGALRVKVRLIEDRVLPSQCYQPLMELLMESVQGPAEEDTASPLALLEELTLGDCRQDLATKLVKLFLGRGLAGRFLDYLTRREVARTMDPNTLFRSNSLASKSMEQFMKLVGMPYLHEVLKPVISRVFEEKKYMELDPCKMDLGRTRRISFKGALSEEQMRETSLGLLTGYLGPIVDAIVGSVGRCPPAMRLAFKQLHRRVEERFPQAEHQDVKYLAISGFLFLRFFAPAILTPKLFDLRDQHADPQTSRSLLLLAKAVQSIGNLGQQLGQGKELWMAPLHPFLLQCVSRVRDFLDRLVDVDGDEAGVPARALFPPSAIVREGYLLKRKEEPAGLATRFAFKKRYVWLSGETLSFSKSPEWQMCHSIPVSHIRAVERVDEGAFQLPHVMQVVTQDGTGALHTTYLQCKNVNELNQWLSALRKASAPNPNKLAACHPGAFRSARWTCCLQAERSAAGCSRTHSAVTLGDWSDPLDPDAEAQTVYRQLLLGRDQLRLKLLEDSNMDTTLEADTGACPEVLARQRAATARLLEVLADLDRAHEEFQQQERGKAALGPLGP
For the molecule B1, the binding entry in test [2] is recorded as “binds”.
